Results published in patent US9880171B2, “iASPP phosphorylation and metastatic potential” (LUDWIG INSTITUTE FOR CANCER RESEARCH LTD., priority 2012, dated 2018).
At least one compound was matched to its structure with a doubt left.

Tests used:
[1] = tested on: WM278, Me300 and SK-MEL37 melanoma cell lines; experiment: p53-dependent apoptosis assay (subG1 DNA content, PI/FACS), Example 8; format: cell-based, human; settings: 0.3 μM K00616a, 20 μM nutlin3, 1 μM PLX4032, agent alone, 72 hours
[2] = tested on: B16 melanoma cells; experiment: apoptosis by Sub-G1 FACS analysis, Example 10, B16 cells; format: cell-based, mouse; settings: B16 cells (wild type BRAF)
Experimental: (§1) FIG. 20. Restoring p53 by inhibiting mdm2 and iASPP suppresses melanoma growth in vitro and in vivo. FIG. 20A. H1299 cells were treated with DMSO or 10 μM nocodazole in the presence or absence of 2 or 10 μM of mitosis-related kinase inhibitors as indicated. […] FIG. 20B. Left panel: representative p53 level after Nutlin3 treatment for 24 hours in a variety of cells. Right bar graphs show the sub-G1 proportion of WM278 after treatment as that described in FIG. 19B (in upper panel, 10 μM and 20 μM Nutlin3 were used in parallel for comparison). From left to right of the upper right bar graph of FIG. 20B, the bars correspond to DMSO, Nut and JNJ+Nut, respectively. From left to right of the bottom bar graph of FIG. 20B, the bars correspond to DMSO, JNJ, Nut and JNJ+Nut, respectively. FIG. 20C. Me300, SK-MEL37, and B16 cells were treated as above (For B16 panel, 10 μM Nutlin3 was used) and sub-G1 proportion was analyzed. In (B) and (C), the bar graphs (mean±SD) were derived from three independent experiments. *p<0.05. FIG. 20D. Left panel: untreated B16 cells were subcutaneously injected into mice at day 1. […] Compound administration and tumor size measurement were repeated every two days from day 7 onwards. Bar graphs are shown as mean±SD (*p<0.05, n=6). FIG. 20E. […]
FIG. 22. […] Me300, SK-MEL37, and B16 cells were treated as described herein and sub-G1 cells were analyzed as described herein.

[3] = tested on: WM278, Me300 and SK-MEL37 melanoma cells; experiment: colony formation assay, Example 10, human melanoma cells; format: cell-based; settings: PLX4032 alone; WM278, Me300 and SK-MEL37 cells (BRAFV600E)
Excerpt: FIG. 21. Restoring apoptotic function of p53 cooperates with BRAFV600E inhibition to suppress human melanoma cell growth. […] The bar graphs (mean±SD) were derived from three independent experiments. *p<0.05. Lower images show representative Annexin V/7-AAD profile and dishes, respectively. FIG. 21C. Diagrams showing how cyclinB1/cdk1 phosphorylation controls iASPP localization in interphase (interphase) or mitosis or tumor cells (mitosis/melanomas). Blue and red stars (*) indicate the C- and N-terminal contact residues and the phosphorylation status is labeled as (P). The bottom diagram summarizes the pathways that PLX4032, Nutlin3 and JNJ used to suppress melanoma cell growth.

[4] = tested on: WM278, Me300 and SK-MEL37 melanoma cell lines; experiment: clonogenic survival / colony formation assay, Example 8; settings: agent alone
[5] = tested on: WM278, Me300 and SK-MEL37 melanoma cells; experiment: apoptosis by Annexin V / Sub-G1 FACS analysis, Example 10, human melanoma cells; format: cell-based
Experimental: as §1, with “20E. Lower panels show representative images of isolated tumors. Right panel: representative H & E staining in B16 tumor section. Bar=20 μm.” for “20E.”

[6] = tested on: B16 melanoma cells; experiment: colony formation assay, Example 10, B16 cells; format: cell-based, mouse

`CCCS(=O)(=O)Nc1ccc(F)c(C(=O)c2c[nH]c3ncc(-c4ccc(Cl)cc4)cc23)c1F` [PLX4032, Vemurafenib] was tested, and the “apoptotic cell death (subG1)” value [1] was “able to induce apoptosis and growth suppression”, the apoptosis [2] was “minimal effect” and the growth suppression [3] was “able to induce apoptosis and growth suppression”. The “growth suppression (colonies)” value [4] was “able to induce apoptosis and growth suppression”, the apoptosis ([5]; PLX4032 alone, WM278, Me300 and SK-MEL37 cells (BRAFV600E)) was “able to induce apoptosis and growth suppression” and the “optimal concentration to induce apoptosis” value ([5]; WM278, Me300 and SK-MEL37 cells) was “One”. For the same compound, the “growth suppression (colony assay)” value [6] was “minimal effect”.
